{"source": "paper PMC11170107", "about": "“Development of a new hazard scoring system in primary neuronal cell cultures for drug-induced acute neuronal toxicity identification in early drug discovery” (Frontiers in Pharmacology, 2024)", "key": {"[1]": {"tested_on": "rat primary cortical neurons", "test": "MEA hazard scoring in rat primary cortical neuronal cultures", "settings": "up to 30-fold its free Cmax"}, "[2]": {"settings": "Supplementary Table S1; cited from earlier work"}}, "data": [{"smiles": "COc1cc2c(cc1OC)C(=O)C(CC1CCN(Cc3ccccc3)CC1)C2", "note": "(centres unmarked) [Donepezil]", "values": [{"measurement": "changes in vitro on MEA", "setting": "[1]", "result": "did not induce any changes"}, {"measurement": "Free Cmax highest", "setting": "[2]", "result": 10, "unit": "nM"}]}]}
